# About 5,500 (1.4%) of roughly 400,000 compounds were called active. The inconclusive results got no clear call from the source; some entries with a clear call stand among them for comparison. Calls follow the shape of the dose curve; as a rule, active = well fitted cell-killing curve with a large enough effect; inconclusive = small, poorly fitted or top-dose-only effect, or effect the other way; inactive = flat fitted curve, though single readings scatter. Potencies beside an inconclusive call are fits to weak or partial responses and may not hold up.
# Assay: qHTS assay for MDR1-selective chemotherapeutics: Primary screen using the parental adenocarcinoma cell KB-3-1; also: nearly all actives have a fitted effect of over 60% in size
# Conditions: KB-3-1 viability, CellTiter-Glo ATP luminescence, 72 h; activity change, negative = cytotoxic: at 46.1 µM (top of the series)
# Outline: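 KB-3-1 parental drug-naive adenocarcinoma cells in DMEM/10% FBS, incubated 72 h at 37 C with pin-transferred compounds across a concentration series. Viability by CellTiter-Glo luminescence; concentration-response curves fitted after normalization.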
# % is scaled to controls: 0 for no effect and ±100 for the full control effect; potency is read from the fitted curve at half-maximal effect.
Structure (SMILES),Potency,"activity change, negative = cytotoxic"
CCN(Cc1ccccc1)S(=O)(=O)c1ccc(C(=O)N(CCCN(C)C)c2nc3c(C)c(C)ccc3s2)cc1,"inconclusive: 29.1 µM [cytotoxic, single point]",–
CS(=O)(=O)N(CC(O)Cn1c2ccccc2c2ccccc21)c1ccccc1 (stereo not drawn),"inconclusive: 23.1 µM [cytotoxic, single point]",–
Cc1nn(CCC(=O)Nc2cc(F)ccc2F)c(=O)c2nn(-c3ccccc3)c(C)c12,–,inactive: -2.97%
O=C(CN1CCC2(CC1)OCCO2)c1ccc2cc[nH]c2c1,"inconclusive: 10.3 µM [cytotoxic, partial curve, poor fit]",–
N#C/C(=C\C1CC=CCC1)c1nc2ccccc2[nH]1 (stereo not drawn),"inconclusive: 29.1 µM [cytotoxic, single point]",–
Cc1cccn2c(=O)c(C(=O)NC3CCCCC3)c(O)nc12,"inconclusive: 20.6 µM [cytotoxic, single point]",–
Cc1ccc(C(=O)N2CCN(c3ccc(F)cc3)CC2)cc1S(=O)(=O)N1CCCCC1,"inconclusive: 25.9 µM [cytotoxic, single point]",–
CCOC(=O)c1sc(=S)n(CC)c1N,"inconclusive: 18.4 µM [cytotoxic, single point]",–
O/N=C/c1ccccc1OCc1ccc(Cl)cc1,–,inactive: 1.58%
COc1ccc(S(=O)(=O)c2cnc3ccc(Cl)cc3c2N2CCCCC2C)cc1 (stereo not drawn),"inconclusive: 29.1 µM [cytotoxic, partial curve, poor fit]",–
Cc1ccc(C(=O)NC(=S)NCc2ccccc2)cc1Br,–,inactive: -0.37%
CC(=O)N(Cc1ccccc1)C(CC(=O)NCc1ccccc1)C(=O)O (stereo not drawn),–,inactive: 1.33%
Nc1ccccc1/C=C/c1ccnc2ccccc12,"inconclusive: 29.1 µM [cytotoxic, single point]",–
CC12CC3CC(C)(C1)CC(C(=O)NC(=S)N1CCCCC1)(C3)C2,–,inactive: -1.06%
c1nc(NCCCN2CCCCC2)c2cc(-c3ccc4c(c3)OCO4)ccc2n1,"inconclusive: 3.66 µM [rising, full curve, poor fit]",–
CCOc1ccc(N(CC)S(=O)(=O)c2cc(Br)cc3c2N(C(C)=O)C(C)C3)cc1 (stereo not drawn),"inconclusive: 18.4 µM [cytotoxic, partial curve, poor fit]",–
COc1ccccc1OCCNC(=O)c1ccc(NC(=O)CC2SC(N3CCCC3)=NC2=O)cc1 (stereo not drawn),"inconclusive: 18.4 µM [rising, single point]",–
Cc1c(/C=N\NC(=O)C2COc3ccccc3O2)c2ccccc2n1C (stereo not drawn),"inconclusive: 0.411 µM [cytotoxic, full curve, poor fit]",–
CCC(=O)Nc1ccc(SC#N)cc1C,–,inactive: -11.7%
Cc1ccc(C)c(N2CCN(C(=O)C34CC5CC(C3)CC(n3nnc(C)n3)(C5)C4)CC2)c1,"inconclusive: 20.6 µM [cytotoxic, single point]",–
CCOC(=O)C1CCCN(C(=O)c2ccc(-c3ccc([N+](=O)[O-])cc3)o2)C1 (stereo not drawn),–,inactive: 1.09%
Cc1ccc(C)c(N2CCN(C(C(=O)NC3CCCC3)c3ccco3)CC2)c1 (stereo not drawn),"inconclusive: 29.1 µM [cytotoxic, single point]",–

Structure (SMILES),Potency,"activity change, negative = cytotoxic"
Cc1ccccc1NC(=O)c1ccc2c(c1)c(C)c(C)n2Cc1ccccc1,"inconclusive: 23.1 µM [cytotoxic, partial curve, poor fit]",–
CCOc1ccccc1CN1CCN(S(=O)(=O)c2ccccc2)CC1,–,inconclusive: -37.8%
Cc1cc(O)c2c(c1)C(=O)c1cc(O)cc(O)c1C2=O,"inconclusive: 29.1 µM [cytotoxic, single point]",–
CCN(CC)S(=O)(=O)c1ccc(N2CCCC2)c(NS(=O)(=O)c2ccc(F)cc2)c1,–,inactive: 1.2%
COc1cc(C(=O)NCC2CCCCC2)ccc1OCc1c(C)noc1C,–,inconclusive: 5.13%
COc1cc(OC)cc(C2=Cc3ccccc3C(CC(C)=O)N2c2ccc(C#CC3(N)CCCCC3)cc2)c1 (stereo not drawn),"inconclusive: 29.1 µM [cytotoxic, single point]",–
CC(C)(C)NC(=S)Nc1cccc(C(F)(F)F)c1,"inconclusive: 29.1 µM [cytotoxic, single point]",–
Cc1cccc(CN2CCC(CNC(=O)Nc3ccc(F)c(Cl)c3)CC2)c1,"inconclusive: 18.4 µM [cytotoxic, single point]",–
CCc1ccc(NC(=O)NCC2CCN(Cc3cccc(Cl)c3)CC2)cc1,"inconclusive: 29.1 µM [cytotoxic, single point]",–
CC(C)(C)OC(=O)CNC(=O)c1[nH]cnc1C(=O)Nc1ccc(CNC(=O)OC(C)(C)C)cc1,"inconclusive: 29.1 µM [cytotoxic, single point]",–
O=C(Nc1ccc(N2CCOCC2)cc1)c1cccc2ccccc12,"inconclusive: 29.1 µM [cytotoxic, single point]",–
CCCCN(CCCC)Cc1cc(=O)oc2cc(C)c(Cl)cc12,"inconclusive: 18.4 µM [cytotoxic, single point]",–
O=C(NC(=S)Nc1ccc(S(=O)(=O)N2CCCCC2)cc1)c1ccccc1,–,inactive: -8.05%
CCc1ccccc1NC(=O)c1cnc(N2CCCCC2)c2ccccc12,–,inactive: 0%
CC(=O)N1N=C(c2ccc(C)cc2)OC1c1ccc(C(C)C)cc1 (stereo not drawn),–,inactive: 0.454%
O=C(CCCl)Nc1nc2c(s1)CCc1ccccc1-2,"inconclusive: 29.1 µM [cytotoxic, single point]",–
CC(C)(C)[C@H](N)C(=O)N[C@H]1CCC2C3CC=C4C[C@@H](O)CC[C@]4(C)C3CC[C@@]21C (stereo partly drawn),"inconclusive: 29.1 µM [cytotoxic, single point]",–
COC(=O)[C@]12CCCCC=C1N(Cc1ccc(Cl)cc1Cl)C(=O)[C@H](CC(=O)NCCc1ccccc1OC)C2,"inconclusive: 16.4 µM [cytotoxic, single point]",–
O=C(Nc1cc(S(=O)(=O)Nc2ccc(Cl)cc2)ccc1O)c1ccc(F)cc1F,"inconclusive: 18.4 µM [cytotoxic, single point]",–
CCN1C(=O)c2ccccc2S(=O)c2ccc(C(=O)N3CCN(c4cc(Cl)ccc4C)CC3)cc21 (stereo not drawn),"inconclusive: 20.6 µM [cytotoxic, single point]",–
CCCc1ccc(-c2cc(C(=O)N/N=C/c3ccc([N+](=O)[O-])o3)c3ccccc3n2)cc1,active: 11.6 µM,–

# Single records, from the list above:
# COC(=O)[C@]12CCCCC=C1N(Cc1ccc(Cl)cc1Cl)C(=O)[C@H](CC(=O)NCCc1ccccc1OC)C2 in the list: Potency: inconclusive: 16.4 µM [cytotoxic, single point]
# CC(=O)N1N=C(c2ccc(C)cc2)OC1c1ccc(C(C)C)cc1 (stereo not drawn) in the list: activity change, negative = cytotoxic: inactive: 0.454%
